According to article PMC3694890:
No constants are given. Whether binding was seen depends on the method and setting. For part of these data: In cells and extracts the contact can be indirect. Some results given as binding are weak or reduced against the parent protein; the word gives no strength.

Sequences of proteins named here, by UniProt entry; tags and fusion partners are left off. A change or cut given only in a name is not applied to a line headed by its entry. Residues count along the entry.
UniProt P17948, residues 27-1338: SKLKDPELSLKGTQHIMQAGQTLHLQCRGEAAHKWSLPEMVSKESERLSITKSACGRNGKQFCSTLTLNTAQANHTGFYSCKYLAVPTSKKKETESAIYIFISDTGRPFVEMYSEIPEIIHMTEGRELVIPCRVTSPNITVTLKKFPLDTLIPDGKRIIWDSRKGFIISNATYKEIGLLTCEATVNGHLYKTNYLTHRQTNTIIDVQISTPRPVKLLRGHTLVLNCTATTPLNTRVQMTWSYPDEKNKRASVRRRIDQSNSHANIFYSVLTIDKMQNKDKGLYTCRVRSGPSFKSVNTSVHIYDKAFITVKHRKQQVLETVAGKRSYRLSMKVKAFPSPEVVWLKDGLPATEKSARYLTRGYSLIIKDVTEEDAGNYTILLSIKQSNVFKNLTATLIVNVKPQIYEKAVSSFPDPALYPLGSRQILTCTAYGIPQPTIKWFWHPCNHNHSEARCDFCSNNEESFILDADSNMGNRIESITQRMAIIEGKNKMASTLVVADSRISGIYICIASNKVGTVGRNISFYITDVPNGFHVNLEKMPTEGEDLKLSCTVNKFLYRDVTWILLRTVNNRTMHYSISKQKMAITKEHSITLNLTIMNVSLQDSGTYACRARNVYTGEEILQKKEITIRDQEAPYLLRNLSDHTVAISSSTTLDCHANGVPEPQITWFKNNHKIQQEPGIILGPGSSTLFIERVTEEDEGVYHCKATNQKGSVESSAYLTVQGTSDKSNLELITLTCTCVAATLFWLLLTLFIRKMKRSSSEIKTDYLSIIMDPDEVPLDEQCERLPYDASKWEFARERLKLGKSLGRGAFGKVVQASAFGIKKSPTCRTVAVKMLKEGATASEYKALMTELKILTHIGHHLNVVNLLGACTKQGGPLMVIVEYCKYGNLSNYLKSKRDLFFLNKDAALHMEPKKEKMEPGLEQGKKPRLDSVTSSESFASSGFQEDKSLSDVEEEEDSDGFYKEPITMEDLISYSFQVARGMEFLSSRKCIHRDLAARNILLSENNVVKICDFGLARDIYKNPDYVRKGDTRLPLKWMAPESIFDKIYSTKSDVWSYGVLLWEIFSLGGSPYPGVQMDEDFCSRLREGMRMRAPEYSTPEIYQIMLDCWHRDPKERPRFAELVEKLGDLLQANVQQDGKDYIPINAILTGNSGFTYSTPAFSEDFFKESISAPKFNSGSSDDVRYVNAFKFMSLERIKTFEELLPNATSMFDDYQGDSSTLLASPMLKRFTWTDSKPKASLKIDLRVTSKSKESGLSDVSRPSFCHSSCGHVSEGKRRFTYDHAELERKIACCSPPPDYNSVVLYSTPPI
UniProt Q01638: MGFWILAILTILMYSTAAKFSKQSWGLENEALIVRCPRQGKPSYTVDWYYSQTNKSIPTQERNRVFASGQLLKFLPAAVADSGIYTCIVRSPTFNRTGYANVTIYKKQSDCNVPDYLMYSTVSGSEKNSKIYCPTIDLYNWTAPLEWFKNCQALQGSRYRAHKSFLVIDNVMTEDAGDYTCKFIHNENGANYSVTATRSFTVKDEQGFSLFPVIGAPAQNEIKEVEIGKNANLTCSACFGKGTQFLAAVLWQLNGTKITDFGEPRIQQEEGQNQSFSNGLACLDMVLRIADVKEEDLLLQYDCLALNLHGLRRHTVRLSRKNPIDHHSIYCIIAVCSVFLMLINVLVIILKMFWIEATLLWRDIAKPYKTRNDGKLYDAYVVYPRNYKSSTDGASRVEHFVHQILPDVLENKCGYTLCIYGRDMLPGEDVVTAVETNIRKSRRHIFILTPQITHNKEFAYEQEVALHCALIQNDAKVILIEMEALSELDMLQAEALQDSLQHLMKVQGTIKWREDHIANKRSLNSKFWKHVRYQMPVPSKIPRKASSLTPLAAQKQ
UniProt P35568: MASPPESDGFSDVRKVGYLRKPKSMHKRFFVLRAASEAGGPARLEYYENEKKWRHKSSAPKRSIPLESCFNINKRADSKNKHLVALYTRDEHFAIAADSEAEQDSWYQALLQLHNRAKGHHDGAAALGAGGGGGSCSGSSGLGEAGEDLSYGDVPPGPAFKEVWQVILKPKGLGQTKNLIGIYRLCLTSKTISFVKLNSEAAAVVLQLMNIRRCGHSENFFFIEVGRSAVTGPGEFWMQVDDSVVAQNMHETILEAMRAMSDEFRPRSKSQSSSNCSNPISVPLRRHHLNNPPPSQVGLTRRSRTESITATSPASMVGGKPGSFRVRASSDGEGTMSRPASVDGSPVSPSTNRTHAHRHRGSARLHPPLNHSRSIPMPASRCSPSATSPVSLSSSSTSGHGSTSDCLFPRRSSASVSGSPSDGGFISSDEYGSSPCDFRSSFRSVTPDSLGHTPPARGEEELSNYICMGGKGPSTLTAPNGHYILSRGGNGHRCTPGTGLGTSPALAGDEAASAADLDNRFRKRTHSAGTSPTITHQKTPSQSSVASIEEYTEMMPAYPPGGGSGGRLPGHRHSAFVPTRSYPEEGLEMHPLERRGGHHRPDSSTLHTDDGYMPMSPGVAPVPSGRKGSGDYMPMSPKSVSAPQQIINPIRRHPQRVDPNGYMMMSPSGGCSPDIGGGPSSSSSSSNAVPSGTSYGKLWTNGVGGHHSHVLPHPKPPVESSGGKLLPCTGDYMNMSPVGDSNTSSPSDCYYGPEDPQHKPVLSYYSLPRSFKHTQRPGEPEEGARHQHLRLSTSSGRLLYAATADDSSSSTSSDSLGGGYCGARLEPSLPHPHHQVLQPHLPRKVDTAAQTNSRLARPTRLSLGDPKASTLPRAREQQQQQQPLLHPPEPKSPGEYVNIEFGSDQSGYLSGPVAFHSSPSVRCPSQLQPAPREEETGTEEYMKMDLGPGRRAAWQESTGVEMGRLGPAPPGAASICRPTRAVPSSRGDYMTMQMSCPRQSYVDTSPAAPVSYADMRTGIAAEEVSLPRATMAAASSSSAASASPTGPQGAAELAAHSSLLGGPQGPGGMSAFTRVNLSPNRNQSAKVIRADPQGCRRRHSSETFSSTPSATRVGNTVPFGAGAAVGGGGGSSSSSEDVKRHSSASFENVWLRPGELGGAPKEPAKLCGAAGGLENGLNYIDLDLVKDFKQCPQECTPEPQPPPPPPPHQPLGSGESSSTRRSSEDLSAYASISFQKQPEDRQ
UniProt O43561: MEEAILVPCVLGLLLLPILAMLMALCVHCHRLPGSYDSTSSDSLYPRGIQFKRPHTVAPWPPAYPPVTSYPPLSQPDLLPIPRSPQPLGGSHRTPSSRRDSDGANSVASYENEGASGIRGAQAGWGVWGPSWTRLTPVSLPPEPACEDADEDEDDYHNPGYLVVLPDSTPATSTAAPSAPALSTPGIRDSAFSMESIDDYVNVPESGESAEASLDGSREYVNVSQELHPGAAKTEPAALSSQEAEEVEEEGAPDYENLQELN
UniProt P62993: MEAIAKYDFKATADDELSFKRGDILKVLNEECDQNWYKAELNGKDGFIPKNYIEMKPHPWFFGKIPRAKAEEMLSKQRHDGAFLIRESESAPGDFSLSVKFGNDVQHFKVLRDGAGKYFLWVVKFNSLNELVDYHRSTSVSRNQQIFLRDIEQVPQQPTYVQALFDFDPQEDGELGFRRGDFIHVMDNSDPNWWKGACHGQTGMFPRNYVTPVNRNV

Tests used:
[1] = target: VEGFR1 pY1213 (endogenous phosphoprotein) (human (endogenous in MCF10A, T47D)) (UniProt P17948); assay: co-IP; endogenous complexes precipitated from 1 mg of total protein of cell lysate with phosphospecific antibodies overnight at 4°C, protein A/G Dynabeads; blotted with mouse monoclonal anti-GRB2
[2] = target: T1, IL1RL1_99 tyrosine phosphopeptide probe (UniProt Q01638); assay: peptide or protein array; total protein of cell lysate (1 mg in 1 mL) of MCF10A, MCF7, T47D or MDA-MB231 over a chip with 160 pY peptide probes (10 replicates, alanine controls), overnight at 4°C; bound GRB2 detected with rabbit anti-GRB2 and Alexa 647 secondary antibody; only the target purified
T1 sequence (peptide, phosphotyrosine at the N-terminus (Y99)): YANVTI

[3] = target: T2, IRS1_46 tyrosine phosphopeptide probe (human) (UniProt P35568); assay: as above
T2 sequence (peptide, phosphotyrosine at the N-terminus (Y46)): YYENEK

[4] = target: T3, IRS1_47 tyrosine phosphopeptide probe (human); assay: as above
T3 sequence (peptide, phosphotyrosine at the N-terminus (Y47)): YENEKK

[5] = target: T4, IRS1_941 tyrosine phosphopeptide probe (human) (UniProt P35568); assay: as above
T4 sequence (peptide, phosphotyrosine at the N-terminus (Y941)): YMKMDL

[6] = target: T5, LAT_255 tyrosine phosphopeptide probe (human) (UniProt O43561); assay: as above
T5 sequence (peptide, phosphotyrosine at the N-terminus (Y255)): YENLQE

[7] = target: T6, NFAM1_220 tyrosine phosphopeptide probe (human); assay: as above
T6 sequence (peptide, phosphotyrosine at the N-terminus (Y220)): YTALQR

[8] = target: T7, PTPN11_279 tyrosine phosphopeptide probe (human); assay: as above
T7 sequence (peptide, phosphotyrosine at the N-terminus (Y279)): YKNILP

[9] = target: T8, SPTAN1_2430 tyrosine phosphopeptide probe (human); assay: as above
T8 sequence (peptide, phosphotyrosine at the N-terminus (Y2430)): YQNLTR

- binding [1]: binds
- binding [2]: binds
- binding [3]: binds
- binding [4]: binds
- binding [5]: binds
- binding [6]: binds
- binding [7]: binds
- binding [8]: binds
- binding [9]: binds
Substance: GRB2 (endogenous, from cell lysates) (from UniProt P62993 1-217)
